Some of the results follow.

Sequences of proteins named here, by UniProt entry; tags and fusion partners are left off.
UniProt Q0JBA9, entry or part of it: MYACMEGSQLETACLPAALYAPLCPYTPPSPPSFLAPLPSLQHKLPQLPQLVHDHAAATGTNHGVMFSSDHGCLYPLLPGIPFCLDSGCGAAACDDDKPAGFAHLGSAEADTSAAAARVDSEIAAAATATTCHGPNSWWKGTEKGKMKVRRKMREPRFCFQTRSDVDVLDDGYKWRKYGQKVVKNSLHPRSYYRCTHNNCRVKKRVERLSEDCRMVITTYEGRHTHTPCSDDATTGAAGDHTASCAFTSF

This test has as its target OsWRKY34 (Oryza sativa, UniProt Q0JBA9 1-250). The experiment in a line: protein-binding microarray (RPBM); PBS, 2% BSA, 51.3 ng/ul salmon testes DNA, 50 uM zinc acetate, 200 nM TF, 25 C, 1 h; high values mean tight binding. Particulars: protein: recombinant; tags: N-terminal polyhistidine and DsRed monomer fusion (pET32a); label: CyDye5-dUTP incorporated in the synthesized complementary strand; 3' TTTTT single-stranded linker to array surface; dsDNA, one strand shown. The essentials:
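Transcription factors were made in E. coli BL21-CodonPlus as N-terminal fusions to a polyhistidine tag and DsRed, then purified on Ni–NTA. After primer extension with Cy5-dUTP and blocking with 2% BSA, a custom Agilent array was exposed for 1 h at 25 °C to 200 nM protein in PBS, 2% BSA, salmon testes DNA and 50 µM zinc acetate. Washed arrays were scanned on an Axon 4000B, and the binding signal is per-feature fluorescence intensity in arbitrary units.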
Regarding “GAATTCCAATCAGAGACACGTCCATGTTCCATCATCGCCCCGGAGTCACCTAGTGCAG”, the binding signal is 8110 fluorescence intensity (a.u.).

For the sequence “TTTCTCCCTTCTGTGTTCCATCCCTAGTCCCCACGCCGGCCGGAGTCACCTAGTGCAG”, the binding signal is 10400 fluorescence intensity (a.u.).

As to “CTCCAACACACCTCAACCTCACTTGGACATGTATGCATAGCGGAGTCACCTAGTGCAG”, the binding signal is 8470 fluorescence intensity (a.u.).

In the case of “TGTGATTTTCTTGTGATTGGGATGTATGGTAATGCTAGGGCGGAGTCACCTAGTGCAG”, the binding signal was 8150 fluorescence intensity (a.u.).

Consider “CACCAGTCAACTCATCCTAACTAACAGGCCTGCAATTCTTCGGAGTCACCTAGTGCAG”, for which the binding signal is 8220 fluorescence intensity (a.u.).

Turning to “TGAATTGGGAAATTTCGGTGTTTTTTTTCTTCTTTTTTTTCGGAGTCACCTAGTGCAG”, the binding signal was 8740 fluorescence intensity (a.u.).

With “CAATTTCCCGCGCGCTGTCACGCTCACACAGTTGAGCTCCCGGAGTCACCTAGTGCAG”, the binding signal was 9920 fluorescence intensity (a.u.).

As for “CTTTATGTTCAATTTCTCTCATACTAGTGACCATGTATTTCGGAGTCACCTAGTGCAG”, the binding signal was 8510 fluorescence intensity (a.u.).

Turning to “GAAAAACTCGTTTCTGGACATCTGCAGATGCATTCTTTCTCGGAGTCACCTAGTGCAG”, the binding signal is 8640 fluorescence intensity (a.u.).

“TGATGTGTGGGTGGTGGTGGTGGTGTGCCTTGTGTAGGTACGGAGTCACCTAGTGCAG”: the binding signal was 20800 fluorescence intensity (a.u.).

Turning to “ATATTATATAGGGTATCATATGGGGTGTTTGGGCACTAATCGGAGTCACCTAGTGCAG”, the binding signal is 10100 fluorescence intensity (a.u.).

As to “GGCTAGTCAGGTCACGCTTCGCACGAGTGCTTCTCCCTCACGGAGTCACCTAGTGCAG”, the binding signal was 8430 fluorescence intensity (a.u.).

Regarding “GGTGTCACCTCCTCTATCTTAGTAACTTGGCCAACTCTTCCGGAGTCACCTAGTGCAG”, the binding signal was 8850 fluorescence intensity (a.u.).

On to “TCAGGTTTAACCGTCTGCGGACCATTTTTTTTCTAAACTTCGGAGTCACCTAGTGCAG”, for which the binding signal was 8850 fluorescence intensity (a.u.).

For “TGTTGGCATGTGGTGTTTTTCCTTGACCCTGCTTGCAGATCGGAGTCACCTAGTGCAG”, the binding signal was 9170 fluorescence intensity (a.u.).

Regarding “TTAACCTCTCTCTTAATTTCAGTTTGTTTGTTCGTTCGTTCGGAGTCACCTAGTGCAG”, the binding signal was 9010 fluorescence intensity (a.u.).

As to “TCGTGGGGCGTGGTTGGAGGTTCGCTCAAGTCGTGGTCGTCGGAGTCACCTAGTGCAG”, the binding signal is 10200 fluorescence intensity (a.u.).

Turning to “TGTATCCTCGAGCTACAGATACGCTGGTCCTTGGAATTTTCGGAGTCACCTAGTGCAG”, the binding signal is 8170 fluorescence intensity (a.u.).

Regarding “GTTCCCCTCGTGCCGCCCGCCTCCGCCGTCGCGTCCCCGCCGGAGTCACCTAGTGCAG”, the binding signal was 8300 fluorescence intensity (a.u.).

With “AGTAAATTTGTGCCCATTTCACGGTAGTACATCATCTTTCCGGAGTCACCTAGTGCAG”, the binding signal is 10900 fluorescence intensity (a.u.).

As to “CTCGTCACTCGTCTCGTCTCGCACAGTCGCAGCTGCTGCGCGGAGTCACCTAGTGCAG”, the binding signal was 8390 fluorescence intensity (a.u.).

“GGAGGGGTGGAAGGAGGGTGGTAGGAGGAATTAGATGTGTCGGAGTCACCTAGTGCAG”: the binding signal is 11000 fluorescence intensity (a.u.).

Regarding “TTCTATCTAACGTGCTCCAATCGTATTTTTCTCGTATACACGGAGTCACCTAGTGCAG”, the binding signal is 11500 fluorescence intensity (a.u.).

As for “GGTCATGCATGGGCGATGGGCCTTGTCTGTACTCTCTCTACGGAGTCACCTAGTGCAG”, the binding signal is 8740 fluorescence intensity (a.u.).

On to “CCCTGCGTTCCGGCCCCACATGCAGTCTCACACCGCACCTCGGAGTCACCTAGTGCAG”, for which the binding signal was 10900 fluorescence intensity (a.u.).

As for “TGTAGGCCCCACCTCACCACAACCGTCAGTTTTCCTTGCTCGGAGTCACCTAGTGCAG”, the binding signal is 10700 fluorescence intensity (a.u.).

As for “AGATCAGGTTTTCTCTTTGGTTGATTGTGTGTGGAAGATCCGGAGTCACCTAGTGCAG”, the binding signal is 10100 fluorescence intensity (a.u.).

For “GGGCGACTGGTAATGTGTGCACTTTGACCAATCTTTTTCGCGGAGTCACCTAGTGCAG”, the binding signal was 12800 fluorescence intensity (a.u.).

For “CAGCCAATCACCAAAATATATTTTGCATTGTGAGGAGGGGCGGAGTCACCTAGTGCAG”, the binding signal is 8760 fluorescence intensity (a.u.).

For the sequence “GACGGCCGCCGCCATGCTACTGCCGAGGCGTCTTCCTCTTCGGAGTCACCTAGTGCAG”, the binding signal was 8160 fluorescence intensity (a.u.).

As for “CCCTTTGCCTCCGCTTTTATCCCACCCGACGATGCATCGGCGGAGTCACCTAGTGCAG”, the binding signal was 8300 fluorescence intensity (a.u.).

Consider “GTTTTCTCTTAGTTTGTCCATCTTTGTCATTTTGCGCTGTCGGAGTCACCTAGTGCAG”, for which the binding signal was 11600 fluorescence intensity (a.u.).

Regarding “AGGGACCCTCGGTGTACTTTTTCCAGCTAGGTTTGTTTTTCGGAGTCACCTAGTGCAG”, the binding signal was 8900 fluorescence intensity (a.u.).

Regarding “CATCATGCCAGTCATCCACTCCACACCACCACACACTCCCCGGAGTCACCTAGTGCAG”, the binding signal was 8660 fluorescence intensity (a.u.).

For the sequence “TCTCTCTTCTCTCTTATTTTTTTCGCACGTGTTTATAGCTCGGAGTCACCTAGTGCAG”, the binding signal was 8940 fluorescence intensity (a.u.).

For “AATAGCCAATTCATACAATAGTTACGTACTACACTATTAACGGAGTCACCTAGTGCAG”, the binding signal is 8860 fluorescence intensity (a.u.).

As to “AACACACATCAACCTGACAACCCATCGATGCACATCCATCCGGAGTCACCTAGTGCAG”, the binding signal is 10300 fluorescence intensity (a.u.).

Take “AGATTGTCTTCATATTCCTGCCTTCTTTGTATACAAACTTCGGAGTCACCTAGTGCAG”: the binding signal was 9500 fluorescence intensity (a.u.).

As for “TTATAGTTTATTTTCTGAATTCTCCATATACATTCTCTACCGGAGTCACCTAGTGCAG”, the binding signal is 8470 fluorescence intensity (a.u.).

Consider “CGCCGCCATTGTTCCCTTAGTCCTCCCATTACCGCGAGCCCGGAGTCACCTAGTGCAG”, for which the binding signal was 8860 fluorescence intensity (a.u.).

Turning to “ACCCTAGCGATTTATTGGCATCCATGTTCCGATCCCTCCACGGAGTCACCTAGTGCAG”, the binding signal is 8510 fluorescence intensity (a.u.).

Turning to “CAACACACTACCCTGTCTTTTTTTTTGTGCCTTTTCTTTCCGGAGTCACCTAGTGCAG”, the binding signal is 11600 fluorescence intensity (a.u.).

Consider “GGGCTGCGCTGGGTTGGGAGGACGGTTTGGTCAATGGACTCGGAGTCACCTAGTGCAG”, for which the binding signal was 9140 fluorescence intensity (a.u.).

Regarding “ACGGTCGGACTCATGGGTGTACTGAACTGCAACGGCATTCCGGAGTCACCTAGTGCAG”, the binding signal was 8140 fluorescence intensity (a.u.).

With “ATCCGTGTTGTAGCCGGCTACAAATCTGTAGTCCGCTTTCCGGAGTCACCTAGTGCAG”, the binding signal was 8260 fluorescence intensity (a.u.).

As for “CTCACAATATTTTTTTGGCACTCATTGGCACTTGTCTTCTCGGAGTCACCTAGTGCAG”, the binding signal is 8770 fluorescence intensity (a.u.).

Consider “TCCGCCGCCGCCGGTCGCCCCAGGTTATCCCGCTCCCGCACGGAGTCACCTAGTGCAG”, for which the binding signal was 8030 fluorescence intensity (a.u.).

Turning to “CTTTTTTTTTCGTACACATGTTTTTCATACAGTCAAACTACGGAGTCACCTAGTGCAG”, the binding signal is 8580 fluorescence intensity (a.u.).

As for “ACAGATGGAGTAGTGTCTTATAAGTTTTTTTTTCCGGTTTCGGAGTCACCTAGTGCAG”, the binding signal was 8380 fluorescence intensity (a.u.).

For “GTTACCGTCCTGTTGGCTGGTTATAACCGTTGTTGTCGTTCGGAGTCACCTAGTGCAG”, the binding signal was 11600 fluorescence intensity (a.u.).

For the sequence “AACGTTGGAAAAAAGTCAACGACTTCGTACATTAAAATATCGGAGTCACCTAGTGCAG”, the binding signal is 9050 fluorescence intensity (a.u.).

“GGCCGATTCGATGTTAGACTTCTCCTGGTTTTGTGTGTTACGGAGTCACCTAGTGCAG”: the binding signal is 12400 fluorescence intensity (a.u.).

Turning to “AGGTTACATATGTTCTCTTCTTTCCCTGATCCTTTTCCTACGGAGTCACCTAGTGCAG”, the binding signal is 8510 fluorescence intensity (a.u.).

As to “CGCCTCGTCTGCGACTGACCGCCGTCGCTCGTCCGCGTTCCGGAGTCACCTAGTGCAG”, the binding signal is 8690 fluorescence intensity (a.u.).

These data come from PMC7819943, “Rice protein-binding microarrays: a tool to detect cis-acting elements near promoter regions in rice”.
